# Test results from PubChem BioAssay AID445 (National Center for Advancing Translational Sciences (NCATS), 2006).
# Some of the results follow. These are further read-outs of the screen, such as a control signal, another cell line or another target. No call is given for them. Most of these compounds were active or inconclusive in the main read-out, so they are no random draw. Words in brackets tell the shape of the fitted curve; partial curves, single points and poor fits give uncertain potencies.
# Assay: IkB Signaling
# Settings: ABC-DLBCL IkBa-CBG/CBR dual luciferase ratio (green luciferase fused to IkBa over red control in OCI-Ly3 lymphoma cells), 4 h
# Outline: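 Luminescence ratio of IκBα-fused green versus native red beetle luciferase in OCI-Ly3 cells, 4 h post-doxycycline with compound; red signal alone, scaled from basal (0%) to zero light (-100%), flagged nonspecific or cytotoxic effects.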
# [1] = measured here: control luc red channel unless noted
# [2] = measured here: IkB-luc green channel
# [3] = measured here: control luc red channel
smiles,measurement,setting,value
Cc1cc(Br)ccc1NC(=O)CCS(=O)(=O)c1cccc2nsnc12,AC50,[1],"0.158 µM [falling, full curve, poor fit]"
CC(=O)NCCNc1nc2c(S(=O)(=O)c3ccc(C)c(C)c3)nnn2c2ccc(Cl)cc12,AC50,[1],"20 µM [falling, single point]"
CCN(CCCCN1C(=O)c2ccccc2C1=O)c1ccc2c(c1)C(=O)N(C)C2=O,AC50,[1],"15.8 µM [falling, partial curve]"
Cc1ccc(C(C)C)c(OCC(=O)Nc2ccc(S(=O)(=O)Nc3onc(C)c3C)cc2)c1,AC50,[1],"39.8 µM [falling, single point]"
CCn1c(SCC(=O)Nc2cccc(NC(=O)c3cccs3)c2)nnc1-c1ccncc1,AC50,[1],"10 µM [falling, partial curve]"
COc1ccc(-c2cn3nc(N4CCC(C(=O)Nc5cccc(Cl)c5)CC4)sc3n2)cc1,AC50,[1],"6.31 µM [rising, single point]"
Cc1ccc(CNC(=O)Cc2coc3cc(C)cc(C)c23)cc1,AC50,[1],"3.16 µM [falling, full curve]"
CCOc1cc(-c2noc(CCCC(N)=O)n2)cc(Br)c1OC,AC50,[1],"5.01 µM [falling, partial curve]"
Cc1cccc(N2CCN(C(=O)CSCc3ccc(F)cc3)CC2)c1C,AC50,[1],"20 µM [falling, partial curve]"
CCCCN(C)C(=O)C1CCCN(c2ncnc3onc(-c4ccc(F)cc4)c23)C1 (centres undefined),AC50,[1],"39.8 µM [falling, partial curve]"
O=C(NCc1ccccc1)c1ccc(NC(=O)c2nsc3ccccc23)cc1,AC50,[1],"0.158 µM [falling, full curve]"
COc1ccc(CNC(=O)CCC(=O)N2CC3CCCN3c3ccccc32)cc1 (centres undefined),AC50,[1],"12.6 µM [falling, partial curve]"
COc1ccccc1CNC(=O)c1ccc(CS(=O)(=O)c2ccccc2C)o1,AC50,[1],"12.6 µM [falling, single point]"
CCCOC(=O)c1ccc(Oc2c(-c3ccc(O)cc3O)n[nH]c2C)cc1,AC50,[1],"25.1 µM [falling, single point]"
CC(=O)N1CCCc2cc(S(=O)(=O)N3CCC(C(=O)NCc4ccc(N(C)C)cc4)CC3)ccc21,AC50,[1],"15.8 µM [falling, single point]"
CCOc1cccc(CC(=O)Nc2ccc3nc(N4CCCCC4)cc(C)c3c2)c1OCC,AC50,[1],"6.31 µM [rising, partial curve]"
Cc1nc2nc(SCC(=O)NCCc3ccccc3)nn2c(C)c1Cc1c(F)cccc1Cl,AC50,[1],"25.1 µM [falling, single point]"
O=C(CSc1nc2ncc(Br)cc2[nH]1)Nc1ccc2c(c1)OCO2,AC50,[1],"12.6 µM [falling, partial curve]"
CC1(C)CC(=O)C2=C(C1)OC(N)=C(C#N)C2C1CC=CCC1 (centres undefined),AC50,[1],"25.1 µM [falling, partial curve]"
Cc1ccc(C(C)C)c(OCC(=O)N2CCC(c3nc4ccccc4o3)CC2)c1,AC50,[1],"15.8 µM [falling, partial curve]"
Nc1c(C(=O)c2ccc(Br)s2)oc2ccccc12,AC50,[1],"7.94 µM [rising, single point] [measured here: IkB-luc green channel]"
CCn1c(SCCOc2ccccc2F)nc2ccccc21,AC50,[1],"39.8 µM [falling, single point]"
CCOc1ccccc1C(=O)Nc1ccc2c(c1)N(C)C(=O)c1ccccc1S2,AC50,[1],"15.8 µM [falling, partial curve]"
Cc1ccccc1OCC(=O)N(Cc1nc(-c2ccccc2)no1)C(C)C,AC50,[1],"39.8 µM [falling, single point]"
Cc1c(C2=CCN(S(=O)(=O)c3ccc(CC(C)C)cc3)CC2)c2ccccc2n1CC(=O)N1CCCC1,AC50,[1],"0.0398 µM [falling, full curve]"
CC(=O)c1cn(CC(=O)NCc2ccc3c(c2)OCO3)c2ccccc12,AC50,[1],"5.01 µM [falling, partial curve]"
Cn1c(=O)nc2n(-c3ccc(Cl)c(Cl)c3)c3cc(Cl)ccc3cc-2c1=O,AC50,[1],"3.98 µM [falling, full curve]"
O=C(Nc1c(C(=O)Nc2ccc(F)cc2)oc2ccccc12)c1ccccc1F,AC50,[1],"12.6 µM [falling, partial curve]"
CC1=C(C(=O)OCC2CCCCC2)C(c2ccccc2F)CC(=O)N1 (centres undefined),AC50,[1],"15.8 µM [falling, partial curve]"
Cc1ccc(NC(=O)Cn2c(=O)n(CCCCC(=O)NCCc3ccccc3)c(=O)c3ccccc32)c(C)c1,AC50,[1],"25.1 µM [falling, partial curve, poor fit]"
COc1cc(NC(=O)Cn2nc(C(F)(F)F)c3c2CCCC3)c(OC)cc1Cl,AC50,[1],"25.1 µM [falling, single point]"
O=S(=O)(NCCc1csc(-c2cccnc2)n1)c1ccc2c(c1)OCCO2,AC50,[1],"0.01 µM [falling, full curve]"
COCCNC(=O)c1ccccc1-c1ccccc1C(=O)O,AC50,[1],"12.6 µM [falling, partial curve]"
COCCNC(=O)CCCn1c(=O)c2cc(OC)c(OC)cc2n(CC(=O)Nc2ccc(F)cc2)c1=O,AC50,[1],"10 µM [falling, partial curve]"
O=C(CSc1nc(=O)[nH]c2c1CCCC2)Nc1ccccc1C(F)(F)F,AC50,[1],"0.794 µM [rising, full curve]"
Cc1ccc(NC(=O)C(NS(=O)(=O)c2ccc3c(c2)CCC(=O)N3)c2ccccc2)cc1C (centres undefined),AC50,[1],"3.98 µM [falling, partial curve]"
c1ccc2c(-c3ccncc3)c[nH]c2c1,AC50,[2],"20 µM [falling, partial curve, poor fit]"
same,AC50,[3],"15.8 µM [falling, partial curve]"
CCOc1ccc(CNC(=O)c2ccc(-c3nc(CS(=O)(=O)c4ccccc4)c(C)o3)cc2)cc1,AC50,[1],"0.0501 µM [falling, full curve, poor fit]"
Cc1nn2c(=O)cc(COC(=O)c3cccc(NC(=O)c4cccs4)c3)nc2s1,AC50,[1],"2.51 µM [falling, partial curve]"
Cc1cccc(N(C)S(=O)(=O)c2cc3c(cc2Cl)NC(=O)CO3)c1,AC50,[1],"39.8 µM [falling, single point]"
O=C(Nc1cccc(C(F)(F)F)c1)C1CCCN1S(=O)(=O)c1cccc2cccnc12 (centres undefined),AC50,[1],"12.6 µM [falling, partial curve]"
Cc1c(Cl)cccc1NC(=O)CSc1nc(=O)n(Cc2ccccn2)c2c1CCC2,AC50,[1],"39.8 µM [falling, single point]"
COc1ccc(OC)c(C(c2nnnn2CCc2ccccc2)N2CCN(c3ccccc3)CC2)c1 (centres undefined),AC50,[2],"25.1 µM [rising, single point]"
same,AC50,[3],"31.6 µM [rising, single point]"
Cc1cc(NC(=O)CSc2nc(C3CCCCC3)nc3ccccc23)no1,AC50,[1],"3.16 µM [falling, full curve]"
CCOC(=O)c1c(NC(=O)c2ccc(S(=O)(=O)N3CCC(C)CC3)cc2)sc2c1CCN(CC)C2,AC50,[1],"39.8 µM [falling, single point]"
C=Cc1ccc(Cn2nc(-c3ccc(C)cc3)ccc2=O)cc1,AC50,[1],"25.1 µM [falling, partial curve]"
CCC(=O)N1CCN(c2ccc(NC(=O)c3cc4ccccc4o3)cc2Cl)CC1,AC50,[1],"3.16 µM [falling, full curve]"
COc1ccc(OC)c(NC(=O)C2CCN(S(=O)(=O)c3ccc4c(c3)CCCC(=O)N4)CC2)c1,AC50,[1],"0.02 µM [falling, full curve]"
O=C(CN1C(=O)COc2ccc(S(=O)(=O)N3CCCC3)cc21)N1CCN(c2ccc(F)cc2)CC1,AC50,[1],"39.8 µM [falling, single point]"
Cc1cccc(-n2c(Cc3ccccc3)nnc2SCc2nc(-c3cccs3)no2)c1,AC50,[1],"31.6 µM [falling, single point]"
Cc1ccc(C(=O)Nc2ccccc2C(=O)NC(CC(=O)O)C(=O)O)cc1 (centres undefined),AC50,[2],"7.94 µM [rising, single point]"
same,AC50,[3],"3.98 µM [rising, partial curve]"
Cc1cccc(Nc2nnc(-c3ccc(C)c(S(=O)(=O)NCC4CCCO4)c3)c3ccccc23)c1 (centres undefined),AC50,[1],"10 µM [falling, partial curve]"
CCOC(=O)c1ccc(N2C(=O)c3n[nH]c(-c4ccco4)c3C2c2ccc(O)c(OCC)c2)cc1 (centres undefined),AC50,[1],"15.8 µM [falling, single point]"
CCOc1cccc(C(=O)N2CCC(c3nc4ccccc4s3)CC2)c1,AC50,[1],"25.1 µM [falling, single point]"
COc1ccc(-c2noc(N(c3cccc(Cl)c3)c3nc(-c4ccc(OC)c(OC)c4)no3)n2)cc1OC,AC50,[1],"15.8 µM [rising, partial curve]"
Cn1nc(-c2ccccc2F)c2cc(C(=O)NCCc3ccc(Cl)cc3)sc21,AC50,[1],"10 µM [falling, partial curve]"
CCOc1ccc(-c2nc(SCC(=O)c3ccccc3)n[nH]2)cc1,AC50,[1],"2 µM [rising, full curve]"
Cc1ccc(S(=O)(=O)Cc2ccc(C(=O)NCCc3ccc(Cl)cc3)o2)cc1,AC50,[1],"20 µM [falling, partial curve]"
O=C(Nc1ccc(C(F)(F)F)cc1Cl)c1ccc(Cn2cc(Br)cn2)o1,AC50,[1],"25.1 µM [falling, partial curve]"
COC(=O)C1=C(C)N(c2cccc3ccccc23)C(=O)C1,AC50,[1],"12.6 µM [falling, partial curve]"
c1ccc(-c2oc3ncnc(NCCCN4CCOCC4)c3c2-c2ccccc2)cc1,AC50,[1],"20 µM [falling, partial curve]"

# An excerpt from the list above, as a working copy:
smiles,measurement,setting,value
Cc1ccc(C(C)C)c(OCC(=O)Nc2ccc(S(=O)(=O)Nc3onc(C)c3C)cc2)c1,AC50,[1],"39.8 µM [falling, single point]"
CCn1c(SCC(=O)Nc2cccc(NC(=O)c3cccs3)c2)nnc1-c1ccncc1,AC50,[1],"10 µM [falling, partial curve]"
COc1ccc(-c2cn3nc(N4CCC(C(=O)Nc5cccc(Cl)c5)CC4)sc3n2)cc1,AC50,[1],"6.31 µM [rising, single point]"
Cc1ccc(CNC(=O)Cc2coc3cc(C)cc(C)c23)cc1,AC50,[1],"3.16 µM [falling, full curve]"

# 2 entries from above, bar-delimited.
smiles | measurement | setting | value
Cc1cccc(-n2c(Cc3ccccc3)nnc2SCc2nc(-c3cccs3)no2)c1 | AC50 | [1] | 31.6 µM [falling, single point]
Cc1ccc(C(=O)Nc2ccccc2C(=O)NC(CC(=O)O)C(=O)O)cc1 (centres undefined) | AC50 | [2] | 7.94 µM [rising, single point]
